No constants are given. Whether binding was seen depends on the method and setting. Some binding calls cover weakened binding; strength is not graded here. For part of these data: Where a sequence is shown, tags or fusion partners need not be part of it.
How the values were obtained:
[1] = substrate: CO (CONSTANS), yeast two-hybrid fusion (Arabidopsis thaliana) (UniProt Q39057); experiment: two-hybrid; yeast AH109; pGBKT7 and pGADT7 fusions; growth on SD/-Trp/-Leu/-His with 10 mM 3-AT
[2] = molecular target: CO/NF-YC9 mixture (mCherry-CO with NF-YC9-GFP), immobilised together (Arabidopsis thaliana) (UniProt Q39057+Q8L4B2); experiment: SPR; Biacore T200, 25 °C; CO, NF-YC9 or a CO/NF-YC9 mixture (4:1) amine-coupled to a CM5 chip (1000-2000 RU); analytes NF-YB2, CO, NF-YC9 in twofold dilutions; HBST (10 mM HEPES, 150 mM NaCl, 3 mM EDTA, 0.05% Tween 20, pH 7.4); bivalent analyte model; both purified

Amino acid sequences for entries named in this document (tags omitted).
UniProt Q39057: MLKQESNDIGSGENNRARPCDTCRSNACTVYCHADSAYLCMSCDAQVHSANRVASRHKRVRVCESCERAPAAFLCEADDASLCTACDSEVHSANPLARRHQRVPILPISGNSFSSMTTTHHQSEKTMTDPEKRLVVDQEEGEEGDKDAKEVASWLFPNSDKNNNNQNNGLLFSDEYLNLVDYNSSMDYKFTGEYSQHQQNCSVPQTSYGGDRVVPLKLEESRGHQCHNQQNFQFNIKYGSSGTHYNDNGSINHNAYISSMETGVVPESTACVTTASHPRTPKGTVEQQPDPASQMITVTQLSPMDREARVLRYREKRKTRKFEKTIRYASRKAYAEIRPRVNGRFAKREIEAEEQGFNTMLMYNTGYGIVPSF

Binder | binding [1] | binding [2]
NF-YC9, full length, yeast two-hybrid fusion (protein, UniProt Q8L4B2 1-231) MDQQDHGQSGAMNYGTNPYQTNPMSTTAATVAGGAAQPGQLAFHQIHQQQQQQQLAQQLQAFWENQFKEIEKTTDFKNHSLPLARIKKIMKADEDVRMISAEAPVVFARACEMFILELTLRSWNHTEENKRRTLQKNDIAAAVTRTDIFDFLVDIVPREDLRDEVLGSIPRGTVPEAAAAGYPYGYLPAGTAPIGNPGMVMGNPGGAYPPNPYMGQPMWQQQAPDQPDQEN | binds | 
NF-YC9-∆IDR1&2, yeast two-hybrid fusion (domain or fragment, UniProt Q8L4B2 55-166) LAQQLQAFWENQFKEIEKTTDFKNHSLPLARIKKIMKADEDVRMISAEAPVVFARACEMFILELTLRSWNHTEENKRRTLQKNDIAAAVTRTDIFDFLVDIVPREDLRDEVL | binds | 
NF-YB2, recombinant (natural protein, Arabidopsis thaliana, UniProt Q9FGJ3 1-190, looked up, Nuclear Factor-Y subunit B2 (NF-YB2), Arabidopsis thaliana; Unlabelled form, as used in SPR; also called His-NF-YB2; source: E. coli Rosetta pLysS, purified (HisTrap; size exclusion when necessary)) MGDSDRDSGGGQNGNNQNGQSSLSPREQDRFLPIANVSRIMKKALPANAKISKDAKETMQECVSEFISFVTGEASDKCQKEKRKTINGDDLLWAMTTLGFEDYVEPLKVYLQRFREIEGERTGLGRPQTGGEVGEHQRDAVGDGGGFYGGGGGMQYHQHHQFLHQQNHMYGATGGGSDSGGGAASGRTRT |  | binds

From publication PMC11696179, “Molecular condensation of the CO/NF-YB/NF-YC/FT complex gates floral transition in Arabidopsis” (The EMBO Journal, 2024)
